# Structures can show the parent of a compound that is named as a salt.
# Columns and labels:
# [1] = tested on: tilidine-specific antibody raised from Immunogen-II; test: Competitive ELISA (Example 7): Ig fraction of antiserum raised to Immunogen II, hapten-HRP conjugate of Example 6 as detecting agent; type: binding; details: absorbance at 450 nm
# Description: (§1) The wells of an enhanced binding 96 well polystyrene microtitre plate were coated with the Ig fraction of the antiserum raised to Immunogen II (N-(carboxypropyl)nortilidine-BTG—example 5), diluted in 10 mMTris, pH 8.5 (125 μl/well). The appropriate antibody coating dilution was determined using standard ELISA checkerboard techniques. The plate was incubated for 2 hours at 37° C., washed 4 times over 10 minutes with Tris buffered saline, containing Tween 20 (TBST) and tapped dry. Standard solutions of tilidine hydrochloride (a mixture of the two trans isomers—the 1R, 2S and the 1S, 2R trans isomers) and nortilidine hydrochloride (a mixture of the two trans isomers—the 1R, 2S and the 1S, 2R trans isomers) were prepared in TBST at 0, 0.625 ng/ml, 1.25 ng/ml, 2.5 ng/ml, 5 ng/ml, 10 ng/ml, 20 ng/ml and 40 ng/ml and 50 μl of each was added to the appropriate wells. 75 μl of conjugate of example 6 (hapten-HRP), diluted in Tris buffer (pH7.2) containing EDTA, D-mannitol, sucrose, thimerosal and BSA was added to each of the wells. The appropriate dilution of conjugate was also determined using standard ELISA checkerboard techniques. The plate was incubated at 25° C. for 1 hour. Excess unbound conjugate was removed by washing 6 times over a 10-15 minute period with TBST. 125 μl of tetramethylbenzidine (TMB) substrate solution was added to each well of the plate that was then incubated for 20 minutes in the dark at room temperature. The reaction was terminated by the addition of 125 μl of 0.2M H2SO4 to each well. The absorbance was then measured at 450 nm using a microtitre plate reader.
# [2] = tested on: tilidine-specific antibody raised from Immunogen-II; test: Competitive ELISA (Example 8): different Ig fraction of antiserum raised to Immunogen II, hapten-HRP conjugate of Example 6 as detecting agent; type: binding; details: absorbance at 450 nm
# Description: as §1, with “with a different” for “with the”, “fraction (to that exemplified in Example 7)” for “fraction”, “and bisnortilidine” for “and nortilidine”, “0, 0.313 ng/ml,” for “0,”, “10” for “10 ng/ml, 20”, “and 20” for “and 40”
smiles,measurement,setting,value
"CCOC(=O)[C@]1(c2ccccc2)CCC=C[C@H]1N(C)C (racemic) [Tilidine HCl, (±)-trans-ethyl 2-(N,N-dimethylamino)-1-phenylcyclohex-3-enylcarboxylate]",A450,[1]; standard 0.625 ng/ml,0.989
same,A450,[1]; standard 1.250 ng/ml,0.861
same,A450,[1]; standard 2.500 ng/ml,0.714
same,A450,[1]; standard 5.000 ng/ml,0.572
same,A450,[1]; standard 10.000 ng/ml,0.444
same,A450,[1]; standard 20.000 ng/ml,0.319
same,A450,[1]; standard 40.000 ng/ml,0.212
same,A450,[2]; standard 0.313 ng/ml,0.971
same,A450,[2]; standard 0.625 ng/ml,0.873
same,A450,[2]; standard 1.250 ng/ml,0.724
same,A450,[2]; standard 2.500 ng/ml,0.568
same,A450,[2]; standard 5.000 ng/ml,0.422
same,A450,[2]; standard 10.000 ng/ml,0.297
same,A450,[2]; standard 20.000 ng/ml,0.194

# From patent US20150185241A1, “Tilidine Immunodetection” (Randox Laboratories Limited, priority 2013, published 2015)
